The record followed here is US12491217B2, “Compositions and methods for promoting healthy neural development in an unborn baby” (The Regents of the University of California, priority 2019, dated 2025).

The data set is described as follows: Metabolomics of fetal brain at E14.5. Type of data set: in vivo, C57Bl/6J mice. The conditions noted are these: metabolite level in E14.5 fetal brain; for fold of change ABX/SPF: ANOVA contrast ABX/SPF; for fold of change GF/ABX: ANOVA contrast GF/ABX; for fold of change GF/SPF: ANOVA contrast GF/SPF; for fold of change GF/Sp: ANOVA contrast GF/Sp; for fold of change Sp/ABX: ANOVA contrast Sp/ABX; for fold of change Sp/SPF: ANOVA contrast Sp/SPF.

`NCCCC(=O)O` [compound 54]: the “fold of change ABX/SPF” value was 0.75, the “fold of change GF/ABX” value is reported as 0.96, the “fold of change GF/SPF” value is 0.72 and the “fold of change GF/Sp” value was determined as 0.90. The “fold of change Sp/ABX” value is 1.06 and the “fold of change Sp/SPF” value worked out at 0.80.

Take `O=C(O)CCCNCCC(=O)O` [compound 55]: the “fold of change ABX/SPF” value was found to be 0.88, the “fold of change GF/ABX” value is recorded as 0.68, the “fold of change GF/SPF” value was found to be 0.60 and the “fold of change GF/Sp” value was 0.72. Moreover, the “fold of change Sp/ABX” value stood at 0.94 and the “fold of change Sp/SPF” value was 0.83.

As to `CNCCCC(=O)O` [compound 56], the “fold of change ABX/SPF” value is listed as 1.22, the “fold of change GF/ABX” value is recorded as 0.59, the “fold of change GF/SPF” value was 0.72 and the “fold of change GF/Sp” value is recorded as 0.95. Also, the “fold of change Sp/ABX” value came to 0.62 and the “fold of change Sp/SPF” value was found to be 0.76.

Turning to `O=C(O)[C@@H]1CCC=N1` [compound 59], the “fold of change ABX/SPF” value stood at 1.70, the “fold of change GF/ABX” value was 0.37, the “fold of change GF/SPF” value came to 0.63 and the “fold of change GF/Sp” value came out at 0.78. The “fold of change Sp/ABX” value is reported as 0.47 and the “fold of change Sp/SPF” value is 0.81.

With `N[C@@H](Cc1c[nH]cn1)C(=O)O` [compound 65], the “fold of change ABX/SPF” value worked out at 1.14, the “fold of change GF/ABX” value came out at 0.85, the “fold of change GF/SPF” value was determined as 0.96 and the “fold of change GF/Sp” value was 1.00. The “fold of change Sp/ABX” value is given as 0.85 and the “fold of change Sp/SPF” value was 0.96.

On to `Cn1cnc(C[C@H](N)C(=O)O)c1` [compound 66], for which the “fold of change ABX/SPF” value is 1.35, the “fold of change GF/ABX” value came out at 0.60, the “fold of change GF/SPF” value came to 0.81 and the “fold of change GF/Sp” value is listed as 1.00. Moreover, the “fold of change Sp/ABX” value turned out to be 0.60 and the “fold of change Sp/SPF” value turned out to be 0.81.

Consider `Cn1cncc1C[C@H](N)C(=O)O` [compound 67], for which the “fold of change ABX/SPF” value was 1.01, the “fold of change GF/ABX” value is 0.70, the “fold of change GF/SPF” value turned out to be 0.70 and the “fold of change GF/Sp” value came out at 0.96. Moreover, the “fold of change Sp/ABX” value turned out to be 0.72 and the “fold of change Sp/SPF” value is listed as 0.73.

`CC(=O)N[C@@H](Cc1c[nH]cn1)C(=O)O` [compound 68]: the “fold of change ABX/SPF” value is 0.94, the “fold of change GF/ABX” value stood at 1.08, the “fold of change GF/SPF” value stood at 1.02 and the “fold of change GF/Sp” value was 1.46. Further, the “fold of change Sp/ABX” value was found to be 0.74 and the “fold of change Sp/SPF” value was 0.70.

Consider `O=C(O)CCc1c[nH]cn1` [compound 74], for which the “fold of change ABX/SPF” value is recorded as 0.33, the “fold of change GF/ABX” value is listed as 0.99, the “fold of change GF/SPF” value was determined as 0.33 and the “fold of change GF/Sp” value turned out to be 0.20. The “fold of change Sp/ABX” value came to 4.81 and the “fold of change Sp/SPF” value is 1.60.

Regarding `N=CN[C@@H](CCC(=O)O)C(=O)O` [compound 75], the “fold of change ABX/SPF” value was found to be 1.80, the “fold of change GF/ABX” value was 0.85, the “fold of change GF/SPF” value came to 1.53 and the “fold of change GF/Sp” value was 1.26. Also, the “fold of change Sp/ABX” value stood at 0.68 and the “fold of change Sp/SPF” value was found to be 1.22.

Consider `O=C(O)C(O)Cc1cnc[nH]1` (stereo not drawn) [compound 76], for which the “fold of change ABX/SPF” value was 0.81, the “fold of change GF/ABX” value was determined as 0.94, the “fold of change GF/SPF” value was 0.76 and the “fold of change GF/Sp” value was 0.84. The “fold of change Sp/ABX” value is 1.11 and the “fold of change Sp/SPF” value is 0.90.

On to `NCCC(=O)N[C@@H](Cc1cnc[nH]1)C(=O)O` [compound 77], for which the “fold of change ABX/SPF” value stood at 0.34, the “fold of change GF/ABX” value is listed as 1.53, the “fold of change GF/SPF” value was 0.52 and the “fold of change GF/Sp” value was determined as 1.33. Further, the “fold of change Sp/ABX” value is on record as 1.15 and the “fold of change Sp/SPF” value came to 0.39.

For the compound `Cn1cncc1C[C@H](NC(=O)CCN)C(=O)O` [compound 80], the “fold of change ABX/SPF” value is 0.40, the “fold of change GF/ABX” value was 1.04, the “fold of change GF/SPF” value came to 0.42 and the “fold of change GF/Sp” value is 0.51. The “fold of change Sp/ABX” value was determined as 2.04 and the “fold of change Sp/SPF” value worked out at 0.82.

In the case of `Cn1cnc(CCN)c1` [compound 82], the “fold of change ABX/SPF” value worked out at 0.27, the “fold of change GF/ABX” value stood at 0.82, the “fold of change GF/SPF” value is 0.22 and the “fold of change GF/Sp” value was found to be 0.53. Moreover, the “fold of change Sp/ABX” value was determined as 1.54 and the “fold of change Sp/SPF” value came to 0.42.

Take `Cn1cnc(CC(=O)O)c1` [compound 83]: the “fold of change ABX/SPF” value is 0.36, the “fold of change GF/ABX” value was 1.15, the “fold of change GF/SPF” value stood at 0.41 and the “fold of change GF/Sp” value is recorded as 0.81. In addition, the “fold of change Sp/ABX” value is 1.42 and the “fold of change Sp/SPF” value is listed as 0.51.

Take `O=C(O)Cc1cn([C@@H]2O[C@H](CO)[C@@H](O)[C@H]2O)cn1` [compound 84]: the “fold of change ABX/SPF” value was 0.43, the “fold of change GF/ABX” value is reported as 0.85, the “fold of change GF/SPF” value is on record as 0.36 and the “fold of change GF/Sp” value worked out at 1.11. Moreover, the “fold of change Sp/ABX” value is listed as 0.76 and the “fold of change Sp/SPF” value was 0.33.

In the case of `NCCCC[C@H](N)C(=O)O` [compound 92], the “fold of change ABX/SPF” value came out at 0.90, the “fold of change GF/ABX” value turned out to be 1.04, the “fold of change GF/SPF” value amounted to 0.94 and the “fold of change GF/Sp” value is on record as 1.06. The “fold of change Sp/ABX” value was determined as 0.98 and the “fold of change Sp/SPF” value stood at 0.89.

As for `CC(=O)N[C@@H](CCCCN)C(=O)O` [compound 93], the “fold of change ABX/SPF” value amounted to 0.49, the “fold of change GF/ABX” value is recorded as 1.18, the “fold of change GF/SPF” value was 0.58 and the “fold of change GF/Sp” value amounted to 0.66. The “fold of change Sp/ABX” value amounted to 1.80 and the “fold of change Sp/SPF” value is 0.88.

For `CNCCCC[C@H](N)C(=O)O` [compound 99], the “fold of change ABX/SPF” value is on record as 0.64, the “fold of change GF/ABX” value was 0.89, the “fold of change GF/SPF” value amounted to 0.57 and the “fold of change GF/Sp” value turned out to be 0.66. In addition, the “fold of change Sp/ABX” value is 1.35 and the “fold of change Sp/SPF” value was found to be 0.86.

With `CN(C)CCCC[C@H](N)C(=O)O` [compound 100], the “fold of change ABX/SPF” value amounted to 0.57, the “fold of change GF/ABX” value was found to be 0.99, the “fold of change GF/SPF” value came out at 0.57 and the “fold of change GF/Sp” value is 0.76. Further, the “fold of change Sp/ABX” value amounted to 1.30 and the “fold of change Sp/SPF” value is 0.75.

Consider `C[N+](C)(C)CCCC[C@H](N)C(=O)O` [compound 101], for which the “fold of change ABX/SPF” value came out at 0.61, the “fold of change GF/ABX” value was found to be 1.06, the “fold of change GF/SPF” value is given as 0.65 and the “fold of change GF/Sp” value is 0.90. Besides, the “fold of change Sp/ABX” value is 1.19 and the “fold of change Sp/SPF” value turned out to be 0.73.
